Measurements reported in article PMC9146561.
Results are given in words; binding and its absence hold for the method and conditions named. A result given as binding can be weak or reduced; the word gives no strength.

Molecular target: GAL4 DNA-binding domain fusion to Vag2 lacking its signal peptide (BD-Vag2ΔSP) (Sporisorium reilianum)
Assay: two-hybrid; library screen, Matchmaker Gold Yeast Two-Hybrid system: bait BD-Vag2ΔSP in Y2HGold mated with Y187 carrying the AD cDNA library of S. reilianum-colonized maize; growth on SD medium lacking leucine, tryptophan, adenine and histidine and containing 3-AT

B1: Terpene synthase1 (protein, UniProt Q84ZW8 1-590)
chain: MAMPVKLTPASLSLKAVCCRFSSGGHALRFGSSLPCWRRTPTQRSTSSSTTRPAAEVSSGKSKQHDQEASEATIRQQLQLVDVLENMGISRHFAAEIKCILDRTYRSWLQRHEEIMLDTMTCAMAFRILRLNGYNVSSDELYHVVEASGLHNSLGGYLNDTRTLLELHKASTVSISEDESILDSIGSRSRTLLREQLESGGALRKPSLFKEVEHALDGPFYTTLDRLHHRWNIENFNIIEQHMLETPYLSNQHTSRDILALSIRDFSSSQFTYQQELQHLESWVKECRLDQLQFARQKLAYFYLSAAGTMFSPELSDARTLWAKNGVLTTIVDDFFDVAGSKEELENLVMLVEMWDEHHKVEFYSEQVEIIFSSIYDSVNQLGEKASLVQDRSITKHLVEIWLDLLKSMMTEVEWRLSKYVPTEKEYMINASLTFGLGPIVLPALYFVGPKISESIVKDPEYDELFKLMSTCGRLLNDVQTFEREYNEGKLNSVSLLVLHGGSMSISDAKRKLQKPIDTCRRDLLSLVLREESVVPRPCKELFWKMCKVCYFFYSTTDGFSSQVERAKEVDAVINEPLKLQGSHTLVSDV
Question: Which binding does the source give for B1 here?
Answer: Its binding is “binds”.
